Record: PubChem BioAssay AID1224830 (NIAID, 2016)
Shown is one part, drawn at random, of about 18,000 reagents tested. About 2,900 of them (16%) were called active. 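Calls are made per well; low scores hint the gene aids the LPS response, high scores that it dampens it.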 Entries without a mark were called inactive. Repeated entries: four replicate wells of each siRNA pool.

Screen: 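Genes whose knock-down alters the TNF-alpha reporter response to LPS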 (primary screen)
Cell system: human THP-1 monocytic leukaemia cells, TNF dual-luciferase reporter clone, PMA-differentiated to macrophage-like cells
Knock-down reagent: siRNA pool against human genes, 50 nM
Time to read-out: LPS for 4 h, given about 3 days after siRNA transfection
Treatment: bacterial LPS (TLR4 ligand), 10 ng/ml
Read-out: 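TNF firefly reporter luminescence divided by renilla, normalised to the plate median, then turned into a robust z-score for each replicate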
Direction: TNF reporter robust z-score: higher = stronger TNF reporter response to LPS
Active means: 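a well is active when its z-score exceeds 2.8 or falls below -1.5; control wells carry no call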

Against SLC40A1 (GeneID 30061) [SID315456284], the entry reads TNF reporter robust z-score 1.05.
Silencing of SLC40A1 (GeneID 30061) [SID315456284] came out at: TNF reporter robust z-score 1.4.
Knock-down of SLC40A1 (GeneID 30061) [SID315456284] came out at: TNF reporter robust z-score -0.58.
Knock-down of SLC40A1 (GeneID 30061) [SID315456284] came out at: TNF reporter robust z-score 2.74.
Against CHML (GeneID 1122) [SID315447915], the values are TNF reporter robust z-score 0.
CHML (GeneID 1122) [SID315447915] showed TNF reporter robust z-score -1.96 (active).
After knock-down of CHML (GeneID 1122) [SID315447915] the results were TNF reporter robust z-score -0.63.
For CHML (GeneID 1122) [SID315447915], the values are TNF reporter robust z-score -0.66.
After knock-down of FAM9B (GeneID 171483) [SID315462933], the record shows TNF reporter robust z-score -0.4.
After knock-down of FAM9B (GeneID 171483) [SID315462933], the record shows TNF reporter robust z-score 0.22.
With knock-down of FAM9B (GeneID 171483) [SID315462933] the results were TNF reporter robust z-score -0.34.
After knock-down of FAM9B (GeneID 171483) [SID315462933], the record shows TNF reporter robust z-score -0.23.
With knock-down of RNF187 (GeneID 149603) [SID315462421], the record shows TNF reporter robust z-score 1.96.
RNF187 (GeneID 149603) [SID315462421] gave TNF reporter robust z-score 2.32.
With knock-down of RNF187 (GeneID 149603) [SID315462421], the screen gave TNF reporter robust z-score 1.73.
With knock-down of RNF187 (GeneID 149603) [SID315462421] the results were TNF reporter robust z-score -1.7 (active).

Sorted by “TNF reporter robust z-score” (low to high): 2 of the entries above
FAM9B (GeneID 171483) [SID315462933] | TNF reporter robust z-score: -0.34
FAM9B (GeneID 171483) [SID315462933] | TNF reporter robust z-score: -0.23

More records:
Against CEMIP (GeneID 57214) [SID315458337] the deposit lists TNF reporter robust z-score 1.35.
Against CEMIP (GeneID 57214) [SID315458337], the entry reads TNF reporter robust z-score -0.1.
Against CEMIP (GeneID 57214) [SID315458337] the deposit lists TNF reporter robust z-score 0.09.
After knock-down of CEMIP (GeneID 57214) [SID315458337], the screen gave TNF reporter robust z-score 0.64.
DCUN1D3 (GeneID 123879) [SID315461593] gave TNF reporter robust z-score 0.
DCUN1D3 (GeneID 123879) [SID315461593] scored TNF reporter robust z-score 0.45.
Silencing of DCUN1D3 (GeneID 123879) [SID315461593] came out at: TNF reporter robust z-score -0.27.
Silencing of DCUN1D3 (GeneID 123879) [SID315461593] came out at: TNF reporter robust z-score 2.46.
ITPK1 (GeneID 3705) [SID315449572] gave TNF reporter robust z-score 0.38.
ITPK1 (GeneID 3705) [SID315449572] showed TNF reporter robust z-score 0.28.
Knock-down of ITPK1 (GeneID 3705) [SID315449572] came out at: TNF reporter robust z-score 0.68.
Depletion of ITPK1 (GeneID 3705) [SID315449572] resulted in: TNF reporter robust z-score -0.31.
With knock-down of ZIC4 (GeneID 84107) [SID315460195] the results were TNF reporter robust z-score -0.16.
Depletion of ZIC4 (GeneID 84107) [SID315460195] gave: TNF reporter robust z-score -0.2.
For ZIC4 (GeneID 84107) [SID315460195], the entry reads TNF reporter robust z-score 1.31.
Silencing of ZIC4 (GeneID 84107) [SID315460195] gave: TNF reporter robust z-score -0.11.
